Data: paper PMC5207133

Test system: Ku70/80 heterodimer + XRCC4-DNA ligase IV (X4L4) + APLF
Experiment: SAXS
Conditions: native protein, protein details: GST removed by PreScission protease, folded or branched DNA

## CCCACCCAAAAATCAATAATCGACCCTTTCGACCCGCGC / GCGCGGGTTATTTGATTTTTGGGTGGGGTCGA [20bpDNA (stem-loop A)]
one-site complex
  binding result: binds

## CCCACCCAAAAATCAATAATCGACCCTTTCGACCCGCGC / GCGCGGGTTATTTGATTTTTGGGTGGGAAAAAAAAAA / TTTTTTTTTTCCCACCCAAAAATCAAATAATCGACCCTTTCGACCCGCGC / GCGCGGGTTATTTGATTTTTGGGTGGG [20bpDNA-10nt (stem-loop B plus complementary stem-loop)]
two-site complex
  binding result: binds

The exact form of at least one protein or probe is not confirmed. At least one verdict was read from the data and is not stated in words by the source.
